Measured values: PubChem BioAssay AID1273 (Columbia University Molecular Screening Center, 2008)
Among all 130,000 compounds or so, about 1,200 (0.92%) were called active. Inconclusive results, whose numbers are uncertain, are shown with a selection of clear calls.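 Rule for the calls: active = inhibition above the mean plus 3 SD, with well images judged a real hit on visual review (cut at about 60% in these data, passing the limit was not always enough); inconclusive = inhibition over the cutoff but images rejected on review; inactive = inhibition not above the cutoff.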

assay: inhibitors of insulin promoter-driven GFP, primary screen, imaging, TRM-6 cells (human fetal islet line), eGFP reporter, cell count (AID 1273); conditions: at 2 µM, stronger effect = higher value, reporter expression induced with tamoxifen

SMILES	inhibition
O=C(NC1CCCCCC1)c1cccc(COCC(F)(F)F)c1	inconclusive: 76.5%
CCCCSc1nnc(-c2ccc(C)cc2)c2ccccc12	inconclusive: 70.4%
CCCc1nc2ccccc2n1CC(O)COc1ccc(NC(C)=O)cc1 (stereo not given)	inconclusive: 73.7%
O=C1Nc2ccccc2N(O)N1c1cc(-c2ccccc2)[nH]n1	active: 85%
CC(C)C1Cc2c(sc3[nH]c(=S)n(Cc4ccccc4)c(=O)c23)CO1 (stereo not given)	inactive: 24.1%
Cn1cccc1/C=N/NC(=O)c1ccn[nH]1	inconclusive: 75%
COc1ccc([N+](=O)[O-])cc1NC(=O)COC(C)=O	inconclusive: 70.6%
CCN1CCN(c2cc(C)c3cc(NC(=O)Cc4ccc(OC)c(OC)c4)ccc3n2)CC1	inconclusive: 85.7%
CCCN(Cc1cc2cc(C)ccc2[nH]c1=O)S(C)(=O)=O	inconclusive: 91.7%
CCOC(=O)Nc1ccc2nc3n(c(=O)c2c1)CCCCC3	inconclusive: 73.3%
Cc1ccc(O)c(-c2cc(-c3ccccc3C)[nH]n2)c1	inconclusive: 77.8%
CCOc1ccc(N=C2NC(=O)S/C2=C\c2ccc(Cl)cc2)cc1	inactive: -19.2%
Cc1c(Nc2cc(Cl)c3nonc3c2[N+](=O)[O-])c(=O)n(-c2ccccc2)n1C	active: 100%
Cn1c(=O)cc(SCC(=O)NCC2CCCO2)c2ccc(Cl)cc21 (stereo not given)	inconclusive: 76.2%
Cc1cc2[nH]c(=O)c3ccccc3n2n1	active: 83.3%
Nc1nc2c(c(=O)[nH]1)C(c1cccc3ccccc13)C1=C(N2)c2ccccc2C1=O (stereo not given)	inconclusive: 71.4%
O=C(O)c1cc(-c2ccco2)nc2ccc(Br)cc12	active: 76.9%
CCOC(=O)c1sc2nc(C)nc(Nc3ccc(OC)cc3)c2c1C	inconclusive: 78.6%
O=C(NNC(=O)c1ccc(F)cc1F)c1ccc2c(c1)OCO2	inconclusive: 78.6%
COC(=O)c1sccc1NC(=S)N1CCN(c2cccc(C)c2C)CC1	inactive: -17.2%
O=Cc1c(-c2ccc(F)cc2)nc2ccccn12	inconclusive: 72.2%
Cc1cccc(OCCNC(=S)NC(=O)c2cccnc2)c1	inconclusive: 64.3%
Cc1ccc(C(C(=O)NCC2CCCO2)N(Cc2ccccc2)C(=O)c2ccc(-c3ccccc3)[nH]2)o1 (stereo not given)	inconclusive: 64.3%
Cc1cnc(C(=O)OCC(=O)Nc2ccc(Cl)cc2Cl)cn1	active: 81.5%

SMILES	inhibition
CC(=O)Nc1ccc(S(=O)(=O)Nc2nccc(/C=C/c3ccc(Cl)cc3)n2)cc1	inconclusive: 61.1%
Oc1ccc(CNCC2COc3ccccc3O2)cc1 (stereo not given)	inactive: 50%
Cc1onc(-c2c(F)cccc2Cl)c1C(=O)OCn1nnc2ccccc2c1=O	inconclusive: 52.1%
Cc1ccc(C(=S)N2CCN(Cc3ccccc3)CC2)s1	inactive: -66.7%
CCOc1ccc(C(CC(=O)O)NC(=O)COc2ccccc2)cc1OC (stereo not given)	inconclusive: 72.7%
N#C/C(=C/c1ccc(N2CCOCC2)c([N+](=O)[O-])c1)C(N)=O	inconclusive: 78.6%
COc1ccc(OC)c(N/C(C)=C/C(=O)c2ccc(C)o2)c1	inconclusive: 80%
c1ccc(CNc2nc(-c3cccs3)nc3ccccc23)nc1	active: 91.7%
Cc1cccc(Nc2nc(N)nc(CN3CCC(C)CC3)n2)c1C	active: 100%
O=C(COC(=O)c1cnccn1)c1ccc2c(c1)CCCC2	inconclusive: 71.4%
Cc1ccc(S(=O)(=O)N2CCCC(C(=O)Nc3ccc(NC(=O)c4ccccn4)cc3)C2)cc1 (stereo not given)	inconclusive: 76.2%
CCN(CC)S(=O)(=O)c1ccc2c(c1)nc(CCC(=O)Nc1ccccc1Cc1ccccc1)n2CC	inactive: -24.3%
COc1ccc(-c2c(C#N)c(C)nc3c2C(=O)c2ccccc2-3)cc1	active: 89.5%
Cn1c(=O)c2c(nc(N/N=C/c3ccc(OC(=O)c4ccco4)cc3)n2Cc2ccccc2Cl)n(C)c1=O	inactive: 36%
Cn1nccc1C(=O)N1CCc2ccccc21	inconclusive: 76.7%
CC(=O)N(c1ccc(Cl)cc1)c1c[nH]c2ccccc12	inconclusive: 72.2%
COc1oc(-c2ccc(Cl)cc2)nc1C(F)(F)F	inconclusive: 75%
CCCC(=O)Nc1nnc(SCC)s1	inconclusive: 76.9%
CCCCCC(=O)N/N=C/c1ccco1	inactive: 0%
CC(NC(=O)Nc1ccc(O)cc1)(C(F)(F)F)C(F)(F)F	inactive: 44%
Cn1cnnc1SCCn1c(N2CCCCC2)nc2c1c(=O)[nH]c(=O)n2C	inconclusive: 71.4%
CC1(C)OC(=O)C(=CNn2cnc3ccccc3c2=O)C(=O)O1	active: 81.8%
Cc1c(CNC(=O)c2cnn3c2NC(c2ccccc2)CC3C(F)(F)F)cnn1C (stereo not given)	inconclusive: 72.2%
Cc1ccc(C(=O)c2cc3c(cc2N)OCCO3)cc1	inconclusive: 85.7%

Reformatted: 27 of the compounds above.

| SMILES | inhibition |
| --- | --- |
| COC(=O)c1sccc1NC(=S)N1CCN(c2cccc(C)c2C)CC1 | inactive: -17.2% |
| O=Cc1c(-c2ccc(F)cc2)nc2ccccn12 | inconclusive: 72.2% |
| Cc1cccc(OCCNC(=S)NC(=O)c2cccnc2)c1 | inconclusive: 64.3% |
| Cc1ccc(C(C(=O)NCC2CCCO2)N(Cc2ccccc2)C(=O)c2ccc(-c3ccccc3)[nH]2)o1 (stereo not given) | inconclusive: 64.3% |
| Cc1cnc(C(=O)OCC(=O)Nc2ccc(Cl)cc2Cl)cn1 | active: 81.5% |
| CC(=O)Nc1ccc(S(=O)(=O)Nc2nccc(/C=C/c3ccc(Cl)cc3)n2)cc1 | inconclusive: 61.1% |
| Oc1ccc(CNCC2COc3ccccc3O2)cc1 (stereo not given) | inactive: 50% |
| Cc1onc(-c2c(F)cccc2Cl)c1C(=O)OCn1nnc2ccccc2c1=O | inconclusive: 52.1% |
| Cc1ccc(C(=S)N2CCN(Cc3ccccc3)CC2)s1 | inactive: -66.7% |
| CCOc1ccc(C(CC(=O)O)NC(=O)COc2ccccc2)cc1OC (stereo not given) | inconclusive: 72.7% |
| N#C/C(=C/c1ccc(N2CCOCC2)c([N+](=O)[O-])c1)C(N)=O | inconclusive: 78.6% |
| COc1ccc(OC)c(N/C(C)=C/C(=O)c2ccc(C)o2)c1 | inconclusive: 80% |
| c1ccc(CNc2nc(-c3cccs3)nc3ccccc23)nc1 | active: 91.7% |
| Cc1cccc(Nc2nc(N)nc(CN3CCC(C)CC3)n2)c1C | active: 100% |
| O=C(COC(=O)c1cnccn1)c1ccc2c(c1)CCCC2 | inconclusive: 71.4% |
| Cc1ccc(S(=O)(=O)N2CCCC(C(=O)Nc3ccc(NC(=O)c4ccccn4)cc3)C2)cc1 (stereo not given) | inconclusive: 76.2% |
| CCN(CC)S(=O)(=O)c1ccc2c(c1)nc(CCC(=O)Nc1ccccc1Cc1ccccc1)n2CC | inactive: -24.3% |
| COc1ccc(-c2c(C#N)c(C)nc3c2C(=O)c2ccccc2-3)cc1 | active: 89.5% |
| Cn1c(=O)c2c(nc(N/N=C/c3ccc(OC(=O)c4ccco4)cc3)n2Cc2ccccc2Cl)n(C)c1=O | inactive: 36% |
| Cn1nccc1C(=O)N1CCc2ccccc21 | inconclusive: 76.7% |
| CC(=O)N(c1ccc(Cl)cc1)c1c[nH]c2ccccc12 | inconclusive: 72.2% |
| COc1oc(-c2ccc(Cl)cc2)nc1C(F)(F)F | inconclusive: 75% |
| CCCC(=O)Nc1nnc(SCC)s1 | inconclusive: 76.9% |
| CCCCCC(=O)N/N=C/c1ccco1 | inactive: 0% |
| CC(NC(=O)Nc1ccc(O)cc1)(C(F)(F)F)C(F)(F)F | inactive: 44% |
| Cn1cnnc1SCCn1c(N2CCCCC2)nc2c1c(=O)[nH]c(=O)n2C | inconclusive: 71.4% |
| CC1(C)OC(=O)C(=CNn2cnc3ccccc3c2=O)C(=O)O1 | active: 81.8% |

Remaining list, next part:

SMILES	inhibition
CCOc1cc(S(=O)(=O)N2CCOCC2)ccc1F	inconclusive: 81.2%
Fc1ccccc1/C=C1\CCCC2=C1Nc1ncnn1C2c1ccccc1F (stereo not given)	active: 86.1%
CCOC(=O)c1c(C)n(C(=O)c2ccco2)c(=O)n1C(=O)c1ccco1	inconclusive: 85.7%
CCc1ccc(NC(=O)C(C)OC(=O)c2cc(=O)[nH]c3ccc(S(=O)(=O)Nc4ccc(F)cc4)cc23)cc1 (stereo not given)	inconclusive: 72.2%
CC(C)CNc1oc(-c2ccco2)nc1C#N	inconclusive: 80%
CCOc1ccc(NC(=O)c2nn(-c3ccc(OC)cc3OC)c(=O)c3ccccc23)cc1	inconclusive: 84.6%
CCOC(=O)CSc1nc(C)c(C(C)=O)cc1C#N	inconclusive: 76.2%
CCSc1nc2ccccc2n1C(=O)Oc1ccccc1	inconclusive: 100%
Nc1cc2c(cc1C(=O)c1ccc(Cl)cc1)OCCO2	active: 75.9%
O=C(c1ccco1)N1CCN(c2c(-c3ccccc3)c3cc(Cl)ccc3[nH]c2=O)CC1	inactive: 25%
CCCCN(CCCC)CP(=O)(c1ccccc1)c1ccccc1	inactive: -14.3%
COc1ccc(CCN(C(=O)C(F)(F)F)C(C(=O)NC2CCCC2)c2cccs2)cc1OC (stereo not given)	inactive: 7.69%
Cc1nn(Cc2ccccc2Cl)c(C)c1C(=O)NCc1ccco1	inactive: -50%
CCC(C)N(CC(=O)Nc1cccc(C)c1C)C(=O)CCl (stereo not given)	active: 100%
O=c1c2ccccc2ncn1Cc1ccc(Cl)cc1	inconclusive: 85.7%
CC(C)(C)c1nnc(NC(=O)CN2C(=O)C3C4C=CC(C4)C3C2=O)s1 (stereo not given)	active: 75%
O=C(O)CCCC(=O)Nc1ccc(N=Nc2ccccc2)cc1	inconclusive: 78.6%
Cc1ccc(NC(=O)c2ccnc(C(C)(C)C)c2)cc1	inconclusive: 57.7%
Cc1c(-c2cc[n+]([O-])cc2)oc2ccc(Br)cc2c1=O	inconclusive: 77.8%
CC(C)Nc1ncnc2ccc(Br)cc12	inconclusive: 75%
CSc1ccccc1-c1nnc(-c2ccc(C)cc2)o1	inactive: 33.3%
CCOc1ccc(NC(=O)CCn2cccc2)cc1	inconclusive: 72.7%
NC(=O)C1CCN(C2CC(=O)N(c3ccc(F)c(Cl)c3)C2=O)CC1 (stereo not given)	inactive: -85.7%
O=C(CNc1ccc(Oc2ccccc2)cc1)N1CCOCC1	inconclusive: 75%

SMILES	inhibition
CCc1cc2c(=O)[nH]c(N3CCOCC3)nc2s1	inconclusive: 79%
Cc1ccc(S(=O)(=O)N2C(=O)C(C)SC2=Nc2ccccc2)cc1 (stereo not given)	inconclusive: 61.5%
NC(=O)CSC1=Nc2ccccc2C2=NC(c3ccccc3)C(=O)N12 (stereo not given)	active: 78.6%
CCN(CC)Cc1c(O)ccc2c([N+](=O)[O-])c(C)n(-c3ccc(OC)cc3)c12	active: 77.8%
O=C(CN1CCN(CC(=O)Nc2ccccc2C(F)(F)F)CC1)Nc1ccccc1F	active: 84.6%
O=c1oc2ccccc2c(Nc2ccc3ccccc3c2)c1[N+](=O)[O-]	inconclusive: 75.7%
OC1C2(Cc3ccccc3)CN3CCN(C2)CC1(Cc1ccccc1)C3 (stereo not given)	inconclusive: 71%
c1ccc(-c2nnc(CN3CCC4(CC3)OCCO4)o2)cc1	inconclusive: 81%
COC(=O)c1ccccc1N1C(=O)C2C(C1=O)[C@H]1C=C[C@@H]2C1 (stereo not given in full)	inconclusive: 75%
COc1ccc(C)cc1S(=O)(=O)N1CCCC(C(=O)NCC2CCCO2)C1 (stereo not given)	inconclusive: 80%
O=C(O)CCC(=O)Nc1ccc(C(=O)OC2CCCCC2)cc1	inconclusive: 70%
c1csc(C2=NNC(=NC3CCCCC3)SC2)c1	inconclusive: 71.4%
CCN(CC)C(=O)C(=O)c1cccn1-c1ccccc1C#N	active: 100%
CCCCc1nnc(NC(=O)C2CCCO2)s1 (stereo not given)	inconclusive: 76.5%
CCn1c(O)c(/C=N/N=C/c2ccccc2)c2ccc(C3=NNC(=O)CC3)cc21	inconclusive: 69.4%
O=C(NCc1ccccc1Cl)C1CCN(C(=O)c2sccc2-n2cccc2)CC1	inconclusive: 80%
Cc1ccc(S(=O)(=O)n2c3ccc(Cl)cc3c3nc(C)sc32)cc1	active: 80%
Nc1nc(SCC(=O)NC2CCCc3ccccc32)n[nH]1 (stereo not given)	inconclusive: 72.2%
Cc1noc(N)c1C(=O)Nc1ccc(F)c(Cl)c1	inconclusive: 71.4%
O=C(NC1(C(F)(F)F)OCCO1)c1ccc(F)cc1	inconclusive: 78.6%
Cc1ccc(C)c(N2CCN(S(=O)(=O)c3c(C)noc3/C=C/N(C)C)CC2)c1	inactive: 7.14%
Cc1ccc(C(=O)C2=C(O)C(=O)N(c3ncccn3)C2c2ccc(Cl)cc2)o1 (stereo not given)	active: 80%
O=C(Nc1nc(-c2nc3ccccc3s2)cs1)c1ccco1	inconclusive: 71.4%
